Measured data: PubChem BioAssay AID743456 (Peter MacCallum Cancer Centre, 2014)
This is a random part of 878 deposited reagents. In the full data, 27 (3.1%) got an active call. 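27 mimics are marked active, unlike an earlier stated count of 24; the viability threshold is described inconsistently.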 Unmarked entries are inactive. Not given: the amount of reagent.

Screen: 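Mimic library tested for viability and apoptosis changes under vorinostat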 (primary screen)
Cells: human HCT116-VR colon cancer cells, a vorinostat-resistant HCT116 line
Reagents: miRNA mimic
Timing: about 3 days from transfection to readout; drug present for the last 24 h
Treatment: vorinostat at 2.5 µM final for 24 h
Measured: 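Cell viability from CellTiter-Fluor signal and caspase activity from luminescence after 24 h vorinostat at 2.5 µM, given as robust z-scores and as ratios to mock-transfected wells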
Direction: viability robust z-score and viability vs mock transfection: higher = more viable cells; caspase robust z-score: higher = more caspase activity, more apoptosis
Rule for the call: 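Active when viability drops or caspase activity climbs beyond robust z thresholds, with wells of poor cell health excluded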

no.	miRNA	viability robust z-score	caspase robust z-score	viability hit class	caspase hit class	viability vs mock transfection
1	hsa-miR-361-5p	0.83	-0.62	no change	no change	0.92
2	hsa-let-7d*	0.89	-0.2	no change	no change	0.91
3	hsa-miR-1183	0.24	-0.52	no change	no change	0.83
4	hsa-miR-876-3p	-2.16	0.91	no change	no change	0.43
5	hsa-miR-30c	0.38	-0.56	no change	no change	0.84
6	hsa-miR-451	0.42	-0.86	no change	no change	0.82
7	hsa-miR-545	0.4	-0.03	no change	no change	0.86
8	hsa-miR-486-3p	-1.58 (active)	5.21	no change	caspase activation	0.47
9	hsa-miR-376a*	-0.7	2.78	no change	no change	0.67
10	hsa-miR-302e	0.55	1.5	no change	no change	0.84
11	hsa-miR-518b	-0.4	-0.4	no change	no change	0.68
12	hsa-miR-1267	0.74	-0.52	no change	no change	0.88
13	hsa-miR-26a	0.82	-0.74	no change	no change	0.92
14	hsa-miR-1236	-2.67	1.16	no change	no change	0.34
15	hsa-miR-520c-3p	0.94	1.5	no change	no change	0.92
16	hsa-miR-663b	0.46	-0.3	no change	no change	0.87
17	hsa-miR-147b	0.97	0.44	no change	no change	0.92
18	hsa-miR-1908	-0.64	-0.36	no change	no change	0.7
19	hsa-miR-1233	0.05	3.62	no change	no change	0.79
20	hsa-miR-106a*	0.1	-0.69	no change	no change	0.8
21	hsa-miR-1266	-0.78	3.14	no change	no change	0.68
22	hsa-miR-2054	0.6	-0.6	no change	no change	0.89
23	hsa-miR-664	-0.06	-0.88	no change	no change	0.78
24	hsa-miR-1284	0.94	-0.7	no change	no change	0.92
25	hsa-miR-199a-5p	0.92	0.25	no change	no change	0.9
26	hsa-miR-136	0.62	-0.94	no change	no change	0.89
27	hsa-miR-602	1.4	-0.18	no change	no change	1
28	hsa-miR-10b*	1.25	0.36	no change	no change	0.98
29	hsa-miR-106a	0.96	0.11	no change	no change	0.92
30	hsa-miR-325	-0.18	-0.1	no change	no change	0.72
31	hsa-miR-202	0.76	2.15	no change	no change	0.88
32	hsa-miR-1913	0.78	0.48	no change	no change	0.92
33	hsa-miR-1281	0.24	-0.3	no change	no change	0.8
34	hsa-miR-503	-1.59	0.2	no change	no change	0.52
35	hsa-miR-133a	-0.02	1.68	no change	no change	0.79
36	hsa-miR-541	-2.45	3.03	no change	no change	0.38
37	hsa-miR-19a	0.19	0.31	no change	no change	0.82
38	hsa-miR-101	0.32	-0.16	no change	no change	0.8
39	hsa-miR-26a-2*	0.74	-0.55	no change	no change	0.91
40	hsa-miR-552	-2.19	-0.14	no change	no change	0.48
41	hsa-miR-1539	-0.87	5.1	no change	no change	0.64
42	hsa-miR-181c	-0.26	0.74	no change	no change	0.74
43	hsa-miR-22*	0.11	1.08	no change	no change	0.77
44	hsa-miR-218-1*	-1.52	1.48	no change	no change	0.56
45	hsa-miR-551b*	0.86	-0.45	no change	no change	0.94
46	hsa-miR-616*	0.7	-0.64	no change	no change	0.91
47	hsa-miR-374a	0.76	-0.66	no change	no change	0.91
48	hsa-miR-520b	-0.18	1.94	no change	no change	0.76
49	hsa-miR-524-3p	0.1	-0.26	no change	no change	0.81
50	hsa-miR-218-2*	-0.57	0.82	no change	no change	0.64
